Measurements reported in paper PMC2726290, “Decoding of Methylated Histone H3 Tail by the Pygo-BCL9 Wnt Signaling Complex” (Molecular Cell, 2008).
No constants are given. Whether binding was seen depends on the method and setting.

Target: T1, hPygo1 PHD finger (amino acids 333-402), free (human) (UniProt Q9Y3Y4)
T1 sequence: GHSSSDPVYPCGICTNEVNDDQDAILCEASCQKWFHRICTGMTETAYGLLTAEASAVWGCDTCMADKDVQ
Experiment: crystal structure; binary PHD-HD1 complexes (hPHD_W366F-HD1, WT1, WT2); vapor diffusion at 19°C; both purified

hPygo1 PHD finger (amino acids 333-402), free (from UniProt Q9Y3Y4 333-402) (domain or fragment)
binding: no binding
